Assay results from PubChem BioAssay AID485353 (National Center for Advancing Translational Sciences (NCATS), 2010).
Out of some 330,000 compounds screened, about 610 (0.18%) were called active. This list was built around the results that the source calls inconclusive (neither active nor inactive); the mix of calls is not that of the screen. Calls follow the shape of the full dose curve. A potency beside an inconclusive call is a rough fit, not a confirmed value.

test: qHTS of Yeast-based Assay for SARS-CoV PLP; also: nearly all actives have a fitted effect of over 55% in size; as to activity, positive = growth rescue: 0% is about no effect; details: S. cerevisiae expressing SARS-CoV PLpro; Potency: growth rescue; activity, positive = growth rescue: at 32.9 µM (top of the series)
Potency is read from the fitted curve at half-maximal effect.

SMILES	Potency	activity, positive = growth rescue
CNC(=S)/N=C(/Nc1ccccc1)c1ccccc1	inconclusive: 12.6 µM [activator, single point]	–
O=C(NCc1ccc(Cl)cc1)C1CCCN(c2cnccn2)C1 (centres undefined)	inconclusive: 12.6 µM [activator, single point]	–
COc1ccc(/C=C2/Sc3ccc(C(=O)NCCN4CCCCCC4)cc3NC2=O)cc1	–	inactive: 1.63%
COc1nnc(-c2ccc(C)c(S(=O)(=O)NC(C)(C)CO)c2)c2ccccc12	inconclusive: 15.8 µM [activator, single point]	–
N#CC1=C2SCC(O)(c3ccccc3)N2C(=O)CC1c1ccccc1 (centres undefined)	inconclusive: 20 µM [activator, single point]	–
CON(C)S(=O)(=O)c1cccc(C(=O)Oc2ccc(N(C)S(=O)(=O)c3ccccc3)cc2)c1	–	inactive: -1.27%
CCOc1cc(/C=N/NC(=O)COc2cccc(C)c2)ccc1OC(=O)c1cccs1	–	inactive: 3.74%
O=C(Nc1cccnc1)c1cc(-c2ccc3c(c2)OCO3)on1	inconclusive: 11.2 µM [activator, single point]	–
Cc1[nH]c2ccc(S(N)(=O)=O)cc2c1C	inconclusive: 2.82 µM [activator, single point]	–
CCc1cc(CNC(=O)c2ccc(OC3CCN(C(C)=O)CC3)c(OC)c2)on1	–	inactive: -0.711%
CCOC(=O)C(C)/C(C)=N/NC(N)=S (centres undefined)	inconclusive: 20 µM [activator, single point]	–
COc1ccc(CNC(=O)CSc2ncn[nH]2)cc1OC	inconclusive: 1 µM [activator, partial curve]	–
Cc1nc2[nH]c(=O)c3c(n2n1)NC1=C(C(=O)CC(C)(C)C1)C3c1ccc(F)cc1 (centres undefined)	inconclusive: 12.6 µM [activator, single point]	–
O=C(c1cc2ccccc2cc1O)N1CCN(c2ccc([N+](=O)[O-])cc2)CC1	–	inactive: -2.02%
COc1cccc(C(=O)CN(C(=O)c2ccc(Cl)cc2Cl)N2C(=O)c3ccccc3C2=O)c1	–	inactive: -1.3%
O=C(NC1CCCN(Cc2ccc(Cl)cc2)C1)c1c(F)ccc(F)c1F (centres undefined)	inconclusive: 1 µM [activator, full curve]	–
O=C(Nc1ccc(Cl)cc1C(F)(F)F)c1ccccc1	inconclusive: 20 µM [activator, single point]	–
O=C1CCC/C(=N/NC(=O)C2CCN(S(=O)(=O)c3cccs3)CC2)C1	inconclusive: 3.16 µM [activator, partial curve]	–
O=C(COC(=O)C1CCC(=O)N1)Nc1ccc(Br)cc1 (centres undefined)	inconclusive: 11.2 µM [activator, partial curve]	–
Cc1ccc(N2C(=O)NC(=O)/C(=C/c3cnc(-c4ccccc4)nc3)C2=O)cc1C	active: 12.6 µM	–
CCNC(=O)Cn1c(=O)c2c(ncn2Cc2ccccc2)n(Cc2ccccc2)c1=O	inconclusive: 0.398 µM [activator, full curve]	–
COc1ccc(C2=CC3=C(Br)C(=O)C(C)(O)C(=O)C3=CO2)cc1 (centres undefined)	–	inactive: -5.22%

3 entries out of the list, arranged by molar mass, smallest number first:
SMILES	Potency	activity, positive = growth rescue
CNC(=S)/N=C(/Nc1ccccc1)c1ccccc1	inconclusive: 12.6 µM [activator, single point]	–
O=C(NCc1ccc(Cl)cc1)C1CCCN(c2cnccn2)C1 (centres undefined)	inconclusive: 12.6 µM [activator, single point]	–
O=C(NC1CCCN(Cc2ccc(Cl)cc2)C1)c1c(F)ccc(F)c1F (centres undefined)	inconclusive: 1 µM [activator, full curve]	–

(more compounds)

SMILES	Potency	activity, positive = growth rescue
CCOc1ccc(NC(=O)C2CCN(S(=O)(=O)c3ccc4c(c3)N(C(C)=O)CCO4)CC2)cc1	inconclusive: 15.8 µM [activator, single point]	–
CCOc1cc(C(=O)Nc2cnccn2)cc(OCC)c1OCC	inconclusive: 17.8 µM [activator, single point]	–
CCCCCCC(=O)N(O)C1CC(=O)N(c2ccc(Br)cc2)C1=O (centres undefined)	–	inactive: -42.4%
CCOC(=O)/C(C#N)=C/c1c(OCC)n(CC)c2ccccc12	active: 12.6 µM	–
N#CC1=C(N)Oc2cc(Nc3ccccc3)ccc2C1c1ccncc1 (centres undefined)	inconclusive: 2.24 µM [activator, single point]	–
CN(Cc1ccccc1)C(=O)c1[nH]cnc1C(=O)N[C@@H](Cc1ccccc1)C(=O)OC(C)(C)C	–	inactive: 0.0215%
COc1cc(/C=N/NC(=O)c2ccc(N)cc2)ccc1OC(=O)c1cccc(C)c1	inconclusive: 3.98 µM [activator, single point]	–
O=C(CCc1ccc(S(=O)(=O)N2CCOCC2)cc1)N1CCN(Cc2ccc3c(c2)OCO3)CC1	–	inactive: -6.57%
OCCC1CN(Cc2ccc(F)cc2Cl)CCN1CCc1ccccc1 (centres undefined)	inconclusive: 4.47 µM [activator, single point]	–
CCc1nnc(SCC(=O)Nc2nc(C)c(C(=O)N(C)C)s2)n1CC	inconclusive: 3.98 µM [activator, single point]	–
CC(=O)c1ccc(N2CCN(C(=O)c3cc(-c4ccncc4)nc4ccc(Cl)cc34)CC2)cc1	inconclusive: 22.4 µM [activator, single point]	–
CCn1c(Cc2c(C)[nH]c3ccccc23)nnc1SCC(=O)NCc1ccco1	inconclusive: 3.98 µM [activator, single point]	–
COc1ccccc1C(CNc1ncccc1[N+](=O)[O-])N(C)C (centres undefined)	inconclusive: 0.282 µM [activator, full curve, poor fit]	–
O=[N+]([O-])c1ccc(Oc2ccc(Oc3ccc(C(F)(F)F)cn3)cc2)nc1	–	inactive: -2.42%
Cc1c(NC(=O)c2ccc3c(c2)OCO3)cccc1-c1nc2ccccc2s1	inconclusive: 2.51 µM [activator, single point]	–
CCN(CC)C1CCN(Cc2cn[nH]c2-c2ccc(OC)c(F)c2)C1 (centres undefined)	–	inactive: 0.941%
COc1ccc(C(=O)N(C)Cc2ccccc2)cc1Br	inconclusive: 3.16 µM [activator, partial curve]	–
Cc1ccc(C(=O)OC(C)C(=O)Nc2ccc(Cl)cn2)s1 (centres undefined)	–	inactive: -3.12%
CCOC(=O)C1CCN(C(=O)CCNS(=O)(=O)c2cc(Br)cnc2N)CC1	inconclusive: 3.16 µM [activator, single point]	–
COc1ccc(S(=O)(=O)NCC2CCC(C(=O)NCc3ccco3)CC2)cc1 (centres undefined)	inconclusive: 20 µM [activator, single point]	–
CC(=O)Nc1ccc(NC2=Nc3ccccc3N3C2=Nc2c(c(C)nn2-c2ccccc2)C3c2ccccc2)cc1 (centres undefined)	inconclusive: 20 µM [activator, single point]	–
CCc1ccccc1NC(=O)CN1CCN(C(=O)c2ccc(OCc3cn4ccccc4n3)cc2)CC1	inconclusive: 22.4 µM [activator, single point]	–
